{"source": "PubChem BioAssay AID504791 (Drosophila RNAi Screening Center, 2011)", "aim": "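Factors in Argonaute-based small RNA production and activity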 (primary screen)", "cells": "Drosophila S2-derived reporter cells", "reagent": "long dsRNA against Drosophila genes, about 150-250 ng dsRNA per well (siRNA assay); about 80-120 ng (miRNA assay)", "duration": "about 5 days (siRNA assay); about 4 days (miRNA assay)", "treatment": "copper sulfate induction of reporters: 25 µM (siRNA assay); 200 mM stated (miRNA assay), 1-2 days before reading", "read-out": "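Dual luciferase assay: Renilla to firefly signal ratio in each well, scaled to the mean ratio of its plate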", "units": "stable assay Renilla, run 1 in luminescence; stable assay firefly, run 1 in luminescence", "rule for the call": "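a well was a first-pass pick when its plate-scaled ratio rose above 1.5 (siRNA assay) or 1.6 (miRNA assay), or dropped below 0.6; a gene counted only if two separate dsRNAs agreed on retest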", "note": "In all, the deposit lists about 23,000 reagents; below is an unselected part of those with a known target gene and a result. In the full data, 199 (0.86%) were called active. 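Plate-scaled ratios behind the calls are not deposited; printed light signals are raw; many rows marked increased or decreased are still called inactive.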 Names joined by + are all predicted targets of the reagent. No sequences are given here. Not given: the direction of the score."}
{"target gene": "CG42471", "DRSC id": "DRSC01210", "stable assay Renilla, run 1": 4456, "stable assay firefly, run 1": 3.64e5, "activity call": "inactive"}
{"target gene": "Tim17a2", "DRSC id": "DRSC12252", "stable assay Renilla, run 1": 7086, "stable assay firefly, run 1": 5.07e5, "activity call": "inactive"}
{"target gene": "beag", "DRSC id": "DRSC15296", "stable assay Renilla, run 1": 8761, "stable assay firefly, run 1": 4.73e5, "activity call": "inactive"}
{"target gene": "CG7860", "DRSC id": "DRSC20060", "stable assay Renilla, run 1": 7831, "stable assay firefly, run 1": 4.63e5, "activity call": "inactive"}
{"target gene": "GluRIB + CG42509 (retired record)", "DRSC id": "DRSC10258", "stable assay Renilla, run 1": 6219, "stable assay firefly, run 1": 5.52e5, "activity call": "inactive"}
{"target gene": "GluRIB + CG42509 (retired record)", "DRSC id": "DRSC11177", "stable assay Renilla, run 1": 6663, "stable assay firefly, run 1": 4.72e5, "activity call": "inactive"}
{"target gene": "Atg18b", "DRSC id": "DRSC03108", "stable assay Renilla, run 1": 11238, "stable assay firefly, run 1": 5.90e5, "activity call": "inactive"}
{"target gene": "CG34039", "DRSC id": "DRSC09318", "stable assay Renilla, run 1": 4996, "stable assay firefly, run 1": 3.16e5, "activity call": "inactive"}
{"target gene": "CG42750", "DRSC id": "DRSC02458", "stable assay Renilla, run 1": 3663, "stable assay firefly, run 1": 2.10e5, "activity call": "inactive"}
{"target gene": "CG42750", "DRSC id": "DRSC03019", "stable assay Renilla, run 1": 7409, "stable assay firefly, run 1": 5.66e5, "activity call": "inactive"}
{"target gene": "CG42750", "DRSC id": "DRSC03024", "stable assay Renilla, run 1": 8739, "stable assay firefly, run 1": 6.48e5, "activity call": "inactive"}
{"target gene": "CG42750", "DRSC id": "DRSC21414", "stable assay Renilla, run 1": 9171, "stable assay firefly, run 1": 5.50e5, "activity call": "inactive"}
{"target gene": "CG42750", "DRSC id": "DRSC23218", "stable assay Renilla, run 1": 7034, "stable assay firefly, run 1": 4.56e5, "activity call": "inactive"}
{"target gene": "CG31467", "DRSC id": "DRSC16048", "stable assay Renilla, run 1": 6767, "stable assay firefly, run 1": 3.55e5, "activity call": "inactive"}
{"target gene": "Cog2", "DRSC id": "DRSC16987", "stable assay Renilla, run 1": 5994, "stable assay firefly, run 1": 3.46e5, "activity call": "inactive"}
{"target gene": "CG42233", "DRSC id": "DRSC14328", "stable assay Renilla, run 1": 6423, "stable assay firefly, run 1": 3.06e5, "activity call": "inactive"}
{"target gene": "CG42233", "DRSC id": "DRSC15416", "stable assay Renilla, run 1": 5812, "stable assay firefly, run 1": 2.38e5, "activity call": "inactive"}
{"target gene": "Desi", "DRSC id": "DRSC14909", "stable assay Renilla, run 1": 7323, "stable assay firefly, run 1": 3.82e5, "activity call": "inactive"}
{"target gene": "CG30259", "DRSC id": "DRSC04164", "stable assay Renilla, run 1": 4698, "stable assay firefly, run 1": 2.47e5, "activity call": "inactive"}
{"target gene": "CG30259", "DRSC id": "DRSC04165", "stable assay Renilla, run 1": 6072, "stable assay firefly, run 1": 3.86e5, "activity call": "inactive"}
{"target gene": "SAK", "DRSC id": "DRSC11879", "stable assay Renilla, run 1": 6559, "stable assay firefly, run 1": 3.65e5, "activity call": "inactive"}
{"target gene": "SAK", "DRSC id": "DRSC23329", "stable assay Renilla, run 1": 4215, "stable assay firefly, run 1": 2.96e5, "activity call": "inactive"}
{"target gene": "CG11409", "DRSC id": "DRSC18579", "stable assay Renilla, run 1": 8298, "stable assay firefly, run 1": 4.46e5, "activity call": "inactive"}
{"target gene": "mats", "DRSC id": "DRSC13562", "stable assay Renilla, run 1": 3799, "stable assay firefly, run 1": 3.62e5, "activity call": "inactive"}
{"target gene": "mats", "DRSC id": "DRSC14702", "stable assay Renilla, run 1": 8114, "stable assay firefly, run 1": 3.79e5, "activity call": "inactive"}
{"target gene": "CG15337", "DRSC id": "DRSC18020", "stable assay Renilla, run 1": 5803, "stable assay firefly, run 1": 3.47e5, "activity call": "inactive"}
{"target gene": "CG15337", "DRSC id": "DRSC22778", "stable assay Renilla, run 1": 4684, "stable assay firefly, run 1": 3.20e5, "activity call": "inactive"}
{"target gene": "TkR99D", "DRSC id": "DRSC16881", "stable assay Renilla, run 1": 5436, "stable assay firefly, run 1": 4.10e5, "activity call": "inactive"}

An excerpt from above, limited to “stable assay firefly, run 1”:
Cog2 [DRSC16987]	3.46e5
CG42233 [DRSC14328]	3.06e5
CG42233 [DRSC15416]	2.38e5
Desi [DRSC14909]	3.82e5
